Experimental data taken from the NIST ThermoML archive (doi:10.1016/j.jct.2017.11.011).
Several values for one entry are separate records, joined by “and”; a condition that tells them apart may be missing. Identical values can stand only once. ± gives the expanded uncertainty stated by the source.

Assays:
[1] = relative permittivity at various frequencies (dimensionless); conditions: 100 kPa, Liquid, Frequency=1 MHz, Parallel plate capacitor
[2] = relative permittivity at various frequencies (dimensionless); xn = mol fraction of the nth substance listed; conditions: 100 kPa, Liquid, Frequency=1 MHz, Parallel plate capacitor, x1 = 1

Row | relative permittivity ([1]; 298.15 K) | relative permittivity ([1]; 303.15 K) | relative permittivity ([2]; 293.15 K) | relative permittivity ([2]; 298.15 K) | relative permittivity ([2]; 303.15 K) | SMILES | relative permittivity ([1]; 293.15 K)
1 | 38.586 ± 1 and 38.526 ± 1 and 38.6 ± 1 | 37.499 ± 1 and 37.515 ± 1 and 37.552 ± 1 |  |  |  | CC(=O)N(C)C [N,N-dimethylethanamide] | 39.695 ± 1.1 and 39.653 ± 1.1 and 39.688 ± 1.1
2 |  |  | 39.688 ± 1.1 | 38.6 ± 1 | 37.552 ± 1 | CC(=O)N(C)C [N,N-dimethylethanamide] + CCCCCCN | 
3 |  |  | 39.653 ± 1.1 | 38.526 ± 1 | 37.515 ± 1 | CC(=O)N(C)C [N,N-dimethylethanamide] + CCCCN | 
4 |  |  | 39.695 ± 1.1 | 38.586 ± 1 | 37.499 ± 1 | CC(=O)N(C)C [N,N-dimethylethanamide] + CCCCNCCCC | 
5 |  |  | 39.695 ± 1.1 | 38.586 ± 1 | 37.499 ± 1 | CC(=O)N(C)C [N,N-dimethylethanamide] + CCCNCCC | 
